Experimental data: the supplement of paper PMC10849652
The other results are listed elsewhere or left out.

Sequences of proteins named here, by UniProt entry; tags and fusion partners are left off. A change or cut given only in a name is not applied to a line headed by its entry.
UniProt P53384: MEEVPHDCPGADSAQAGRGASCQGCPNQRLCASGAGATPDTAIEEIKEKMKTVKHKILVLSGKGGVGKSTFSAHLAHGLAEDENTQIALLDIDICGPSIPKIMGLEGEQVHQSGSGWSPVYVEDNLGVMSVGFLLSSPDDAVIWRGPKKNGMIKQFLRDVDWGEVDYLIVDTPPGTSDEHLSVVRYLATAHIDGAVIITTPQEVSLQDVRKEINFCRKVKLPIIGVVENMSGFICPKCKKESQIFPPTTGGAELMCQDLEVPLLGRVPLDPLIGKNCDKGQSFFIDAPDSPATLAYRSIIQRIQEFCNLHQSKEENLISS
UniProt Q96MG7: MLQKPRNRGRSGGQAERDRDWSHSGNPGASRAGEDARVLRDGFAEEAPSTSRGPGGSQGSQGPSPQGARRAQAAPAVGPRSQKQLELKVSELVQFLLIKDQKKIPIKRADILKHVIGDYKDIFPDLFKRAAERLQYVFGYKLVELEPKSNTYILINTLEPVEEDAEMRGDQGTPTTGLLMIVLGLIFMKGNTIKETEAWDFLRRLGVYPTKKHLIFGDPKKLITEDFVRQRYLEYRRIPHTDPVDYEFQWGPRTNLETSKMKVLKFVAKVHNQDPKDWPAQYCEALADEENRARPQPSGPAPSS
UniProt Q9Y2X3: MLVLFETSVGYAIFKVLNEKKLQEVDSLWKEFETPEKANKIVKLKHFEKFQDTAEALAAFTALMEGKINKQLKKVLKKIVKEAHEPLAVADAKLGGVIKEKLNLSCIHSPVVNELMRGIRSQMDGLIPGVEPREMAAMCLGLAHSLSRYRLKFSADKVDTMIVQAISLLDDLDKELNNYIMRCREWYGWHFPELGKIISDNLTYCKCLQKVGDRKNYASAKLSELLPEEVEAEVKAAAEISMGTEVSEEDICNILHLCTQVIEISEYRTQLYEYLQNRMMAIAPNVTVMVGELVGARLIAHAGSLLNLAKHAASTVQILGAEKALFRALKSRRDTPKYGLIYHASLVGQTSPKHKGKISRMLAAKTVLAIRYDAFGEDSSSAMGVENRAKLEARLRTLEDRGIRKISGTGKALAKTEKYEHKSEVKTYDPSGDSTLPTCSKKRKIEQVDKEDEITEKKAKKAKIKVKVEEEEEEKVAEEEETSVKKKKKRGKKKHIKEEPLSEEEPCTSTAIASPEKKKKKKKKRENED
UniProt Q13232: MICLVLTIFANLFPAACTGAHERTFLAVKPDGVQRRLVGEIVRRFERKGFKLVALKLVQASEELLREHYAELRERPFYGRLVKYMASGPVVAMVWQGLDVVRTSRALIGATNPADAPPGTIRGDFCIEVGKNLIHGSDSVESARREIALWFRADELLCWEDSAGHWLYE
UniProt Q96DE0: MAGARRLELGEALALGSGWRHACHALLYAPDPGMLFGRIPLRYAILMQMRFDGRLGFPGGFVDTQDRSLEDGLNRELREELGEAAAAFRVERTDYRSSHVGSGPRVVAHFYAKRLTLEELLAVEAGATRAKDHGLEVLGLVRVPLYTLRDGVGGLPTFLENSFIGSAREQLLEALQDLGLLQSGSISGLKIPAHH
UniProt Q9BRJ7: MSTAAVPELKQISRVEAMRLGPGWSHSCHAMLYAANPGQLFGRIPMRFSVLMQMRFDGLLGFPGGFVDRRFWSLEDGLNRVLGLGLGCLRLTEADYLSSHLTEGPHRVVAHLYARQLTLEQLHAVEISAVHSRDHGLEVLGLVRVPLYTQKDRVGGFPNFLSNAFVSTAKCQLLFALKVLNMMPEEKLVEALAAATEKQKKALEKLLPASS
UniProt P57740: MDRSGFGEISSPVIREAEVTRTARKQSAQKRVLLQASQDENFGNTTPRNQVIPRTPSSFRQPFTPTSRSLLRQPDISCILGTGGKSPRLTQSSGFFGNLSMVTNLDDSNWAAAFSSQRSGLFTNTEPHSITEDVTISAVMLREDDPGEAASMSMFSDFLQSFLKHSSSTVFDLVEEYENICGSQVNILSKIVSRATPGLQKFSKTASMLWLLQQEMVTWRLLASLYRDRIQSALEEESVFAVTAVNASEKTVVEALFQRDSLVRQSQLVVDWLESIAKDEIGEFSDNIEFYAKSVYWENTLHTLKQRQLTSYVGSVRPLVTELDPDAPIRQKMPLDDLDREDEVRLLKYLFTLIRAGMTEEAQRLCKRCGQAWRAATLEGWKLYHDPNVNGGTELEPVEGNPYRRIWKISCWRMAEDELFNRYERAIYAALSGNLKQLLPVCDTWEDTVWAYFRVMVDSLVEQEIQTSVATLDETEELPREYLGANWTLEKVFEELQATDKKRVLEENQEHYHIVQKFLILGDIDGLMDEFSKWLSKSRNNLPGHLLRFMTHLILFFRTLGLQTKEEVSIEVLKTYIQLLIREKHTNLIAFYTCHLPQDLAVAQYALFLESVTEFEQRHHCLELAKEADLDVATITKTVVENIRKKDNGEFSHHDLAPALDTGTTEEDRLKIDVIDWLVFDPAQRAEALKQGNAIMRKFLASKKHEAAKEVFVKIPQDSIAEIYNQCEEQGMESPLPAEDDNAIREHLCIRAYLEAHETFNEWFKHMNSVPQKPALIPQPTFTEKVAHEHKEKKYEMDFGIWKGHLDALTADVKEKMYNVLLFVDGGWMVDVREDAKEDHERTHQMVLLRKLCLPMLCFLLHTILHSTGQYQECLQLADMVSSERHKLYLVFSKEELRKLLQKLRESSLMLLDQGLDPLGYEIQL
UniProt Q8IVI9: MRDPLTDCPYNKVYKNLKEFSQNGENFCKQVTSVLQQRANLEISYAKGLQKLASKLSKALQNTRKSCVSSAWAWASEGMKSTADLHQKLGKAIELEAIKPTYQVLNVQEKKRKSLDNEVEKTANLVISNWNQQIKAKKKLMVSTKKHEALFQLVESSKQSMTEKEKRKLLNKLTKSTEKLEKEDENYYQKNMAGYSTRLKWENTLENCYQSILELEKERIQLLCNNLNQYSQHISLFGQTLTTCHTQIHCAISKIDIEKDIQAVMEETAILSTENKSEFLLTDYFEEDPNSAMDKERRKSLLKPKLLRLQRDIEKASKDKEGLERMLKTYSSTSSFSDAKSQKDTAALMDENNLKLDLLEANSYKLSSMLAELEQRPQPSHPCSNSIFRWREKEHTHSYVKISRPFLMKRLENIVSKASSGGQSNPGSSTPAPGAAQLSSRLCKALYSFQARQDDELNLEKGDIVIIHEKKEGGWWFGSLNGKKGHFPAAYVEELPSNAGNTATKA
UniProt O60361, whole entry, looked up: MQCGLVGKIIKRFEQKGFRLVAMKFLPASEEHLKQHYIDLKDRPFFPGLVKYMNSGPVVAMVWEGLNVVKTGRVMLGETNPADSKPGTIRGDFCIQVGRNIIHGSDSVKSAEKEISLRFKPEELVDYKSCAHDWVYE
UniProt O75414: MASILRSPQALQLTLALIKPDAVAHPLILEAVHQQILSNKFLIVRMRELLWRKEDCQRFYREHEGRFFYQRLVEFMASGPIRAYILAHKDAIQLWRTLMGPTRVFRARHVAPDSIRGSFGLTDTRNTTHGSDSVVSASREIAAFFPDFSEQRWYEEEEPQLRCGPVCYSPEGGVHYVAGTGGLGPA
UniProt Q9NZJ9: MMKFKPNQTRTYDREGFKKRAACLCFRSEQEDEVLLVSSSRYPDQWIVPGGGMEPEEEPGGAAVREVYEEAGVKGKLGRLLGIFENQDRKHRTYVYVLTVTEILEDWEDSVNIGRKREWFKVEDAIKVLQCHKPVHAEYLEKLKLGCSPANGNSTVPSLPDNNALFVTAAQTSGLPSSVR
UniProt Q9H1E3: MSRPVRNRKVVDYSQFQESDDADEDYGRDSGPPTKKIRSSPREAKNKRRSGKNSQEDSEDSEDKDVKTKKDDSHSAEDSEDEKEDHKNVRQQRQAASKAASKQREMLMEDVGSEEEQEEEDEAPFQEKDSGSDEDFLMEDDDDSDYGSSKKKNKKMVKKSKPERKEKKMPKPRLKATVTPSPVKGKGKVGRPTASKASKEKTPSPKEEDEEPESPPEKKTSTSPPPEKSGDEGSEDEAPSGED
UniProt P49790, whole entry, looked up: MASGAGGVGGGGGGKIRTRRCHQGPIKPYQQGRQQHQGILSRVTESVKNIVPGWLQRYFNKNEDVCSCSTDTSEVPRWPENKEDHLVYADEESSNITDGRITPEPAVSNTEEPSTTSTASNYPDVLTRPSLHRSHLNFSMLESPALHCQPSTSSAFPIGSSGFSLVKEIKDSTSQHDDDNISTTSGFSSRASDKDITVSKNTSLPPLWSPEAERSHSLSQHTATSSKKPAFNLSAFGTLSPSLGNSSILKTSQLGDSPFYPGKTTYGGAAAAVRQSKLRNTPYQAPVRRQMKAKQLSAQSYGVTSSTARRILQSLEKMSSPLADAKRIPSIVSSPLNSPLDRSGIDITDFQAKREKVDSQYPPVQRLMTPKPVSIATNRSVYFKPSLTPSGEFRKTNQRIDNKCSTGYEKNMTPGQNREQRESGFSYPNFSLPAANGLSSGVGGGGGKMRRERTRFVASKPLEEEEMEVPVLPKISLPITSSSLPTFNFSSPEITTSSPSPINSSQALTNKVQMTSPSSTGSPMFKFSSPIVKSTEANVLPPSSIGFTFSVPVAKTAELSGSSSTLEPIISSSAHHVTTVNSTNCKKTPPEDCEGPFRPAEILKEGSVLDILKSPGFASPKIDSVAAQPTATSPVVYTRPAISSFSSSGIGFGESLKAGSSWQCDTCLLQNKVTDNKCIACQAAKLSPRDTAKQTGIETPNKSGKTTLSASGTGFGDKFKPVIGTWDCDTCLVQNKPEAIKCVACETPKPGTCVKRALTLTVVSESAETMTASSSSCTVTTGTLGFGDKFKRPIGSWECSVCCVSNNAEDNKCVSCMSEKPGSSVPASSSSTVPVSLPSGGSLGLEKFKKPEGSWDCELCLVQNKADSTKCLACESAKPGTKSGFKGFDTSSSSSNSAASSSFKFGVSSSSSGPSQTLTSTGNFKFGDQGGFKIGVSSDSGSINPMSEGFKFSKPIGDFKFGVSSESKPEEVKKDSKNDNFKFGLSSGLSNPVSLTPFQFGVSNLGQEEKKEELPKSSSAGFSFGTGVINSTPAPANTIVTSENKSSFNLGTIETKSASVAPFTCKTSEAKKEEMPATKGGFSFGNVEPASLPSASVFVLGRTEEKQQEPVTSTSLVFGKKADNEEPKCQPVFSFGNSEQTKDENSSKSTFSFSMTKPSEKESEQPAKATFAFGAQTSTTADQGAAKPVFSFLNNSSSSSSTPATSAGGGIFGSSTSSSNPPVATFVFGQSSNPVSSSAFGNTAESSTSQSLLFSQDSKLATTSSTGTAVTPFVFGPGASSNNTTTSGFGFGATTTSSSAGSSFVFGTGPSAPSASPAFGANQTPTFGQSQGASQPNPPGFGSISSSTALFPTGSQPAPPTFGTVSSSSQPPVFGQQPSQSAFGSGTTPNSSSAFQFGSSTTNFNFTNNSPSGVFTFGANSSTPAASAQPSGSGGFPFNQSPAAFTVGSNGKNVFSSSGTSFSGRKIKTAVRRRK
UniProt Q9HBL8: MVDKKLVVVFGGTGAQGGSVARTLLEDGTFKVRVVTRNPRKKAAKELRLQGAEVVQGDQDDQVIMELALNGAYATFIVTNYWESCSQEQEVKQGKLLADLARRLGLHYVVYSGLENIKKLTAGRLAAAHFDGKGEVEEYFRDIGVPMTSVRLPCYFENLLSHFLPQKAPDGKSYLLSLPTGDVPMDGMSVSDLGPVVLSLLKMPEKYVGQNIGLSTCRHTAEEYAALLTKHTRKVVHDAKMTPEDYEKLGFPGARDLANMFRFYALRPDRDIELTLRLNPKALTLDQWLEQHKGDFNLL
UniProt Q96CB9: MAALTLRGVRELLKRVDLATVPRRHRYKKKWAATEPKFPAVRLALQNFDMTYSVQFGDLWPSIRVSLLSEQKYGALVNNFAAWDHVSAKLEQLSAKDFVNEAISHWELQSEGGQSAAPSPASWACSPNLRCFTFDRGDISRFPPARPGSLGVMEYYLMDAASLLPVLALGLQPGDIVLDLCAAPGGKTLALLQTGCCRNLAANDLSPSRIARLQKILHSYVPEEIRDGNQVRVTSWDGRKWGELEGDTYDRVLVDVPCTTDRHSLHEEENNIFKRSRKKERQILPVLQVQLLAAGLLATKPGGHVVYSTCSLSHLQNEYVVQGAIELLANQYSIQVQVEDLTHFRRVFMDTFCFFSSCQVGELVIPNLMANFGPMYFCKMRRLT
UniProt P06748, whole entry, looked up: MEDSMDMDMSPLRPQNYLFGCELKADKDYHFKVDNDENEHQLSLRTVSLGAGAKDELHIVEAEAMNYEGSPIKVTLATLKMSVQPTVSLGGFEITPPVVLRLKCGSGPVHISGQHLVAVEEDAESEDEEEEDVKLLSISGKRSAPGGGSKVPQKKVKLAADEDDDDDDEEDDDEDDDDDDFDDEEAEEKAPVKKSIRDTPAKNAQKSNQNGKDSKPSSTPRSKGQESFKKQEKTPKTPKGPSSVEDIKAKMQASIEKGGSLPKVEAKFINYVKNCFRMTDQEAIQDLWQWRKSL

What was measured:
Experiment in all cases: log2 fold change, soluble protein after heating vs DMSO (PISA); higher = thermal stabilisation; K562 lysate, 10 uM; active = over 0.2 and 3.5 SD of the protein, either way, in both replicates (recomputed)
[1] = compound: C1=CC=C(C=C1)[C@H](COC2=CC3=C(C=C2)NC(=O)N3)NC(=O)C4=CC=CN(C4=O)CC5=CC(=C(C=C5)F)F
In short: (§1)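 Soluble protein was defined as the supernatant remaining after 21,000xg for 90 min, following pooling of heated aliquots and adjustment to 0.5% NP-40 at 4°C. Before that, crude K562 extract at 1 mg/mL protein in PBS pH 7.4 with 1 mM MgCl2 was treated with 10 μM compound for 30 min and heated for 3 min across 48°C-58°C. Quantification used TMTpro 16plex LC-MS/MS with channel sums equalised, and values are log-two fold changes in thermal stability relative to solvent controls from duplicates.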

[2] = compound: CC1=C(SC2=C1C(=N[C@H](C3=NN=C(N32)C)CC(=O)N)C4=CC=C(C=C4)Cl)C
In short: as §1

[3] = compound: CC1=C2C(=CC=C1)N=C(N(C2=O)C3=CC=CC=C3C)CN4C=NC5=C(N=CN=C54)N
In short: as §1

[4] = compound: Cc1sc2c(c1C)C(c1ccc(Cl)cc1)=N[C@@H](CC(=O)OC(C)(C)C)c1nnc(C)n1-2
In short: as §1

[5] = compound: c1ccc([C@@H]2C[C@H]2NC2CCNCC2)cc1
In short: as §1

Measured: log2 fold change

NUDT21 (UniProt O43809)
inactive: [1] 0.017 | [2] -0.042 | [3] 0.004 | [4] 0.031 | [5] 0.058

NUBP1 (UniProt P53384)
inactive: [1] 0.019 | [2] -0.008 | [3] -0.021 | [4] 0.037 | [5] 0.035

NOL6 (UniProt Q9H6R4)
inactive: [1] 0 | [2] -0.017 | [3] -0.018 | [4] -0.042 | [5] 0.023

NSMCE3 (UniProt Q96MG7)
inactive: [1] 0.019 | [2] 0.053 | [3] 0.002 | [4] 0.017 | [5] 0.031

NPL (UniProt Q9BXD5)
inactive: [1] -0.22 | [2] 0.113 | [3] -0.065 | [4] 0.103 | [5] -0.242

NOP58 (UniProt Q9Y2X3)
inactive: [1] 0.002 | [2] 0.005 | [3] -0.014 | [4] 0.067 | [5] 0.023

NRBF2 (UniProt Q96F24)
inactive: [1] -0.034 | [2] -0.037 | [3] -0.024 | [4] -0.007 | [5] 0.008

NOL10 (UniProt Q9BSC4)
inactive: [1] -0.043 | [2] -0.049 | [3] -0.032 | [4] -0.061 | [5] 0.18

NME3 (UniProt Q13232)
inactive: [1] -0.069 | [2] 0.041 | [3] -0.003 | [4] 0.071 | [5] -0.006

NUDT16 (UniProt Q96DE0)
inactive: [1] 0.008 | [2] -0.05 | [3] -0.052 | [4] -0.047 | [5] -0.004

NT5C (UniProt J3KSX6)
inactive: [1] -0.045 | [2] 0.011

NUDT16L1 (UniProt Q9BRJ7)
inactive: [1] 0.016 | [2] -0.067 | [3] 0.054 | [4] -0.033 | [5] 0.022

NUCB1 (UniProt Q02818)
inactive: [1] 0.016 | [2] -0.002 | [3] -0.007 | [4] -0.03 | [5] -0.017

NUP107 (UniProt P57740)
inactive: [1] 0.063 | [2] 0.003 | [3] 0.052 | [4] -0.013 | [5] -0.006

NMNAT3 (UniProt Q96T66)
inactive: [1] 0.035 | [2] -0.045

NOSTRIN (UniProt Q8IVI9)
inactive: [1] -0.061 | [2] 0.039 | [3] 0.017 | [4] -0.092 | [5] 0.017

NME2P1 (UniProt O60361)
inactive: [1] 0.02 | [2] -0.049 | [3] 0.154 | [4] -0.183 | [5] -0.222

NME6 (UniProt O75414)
inactive: [1] 0.016 | [2] -0.062 | [3] 0 | [4] 0.015 | [5] 0.008

NNT (UniProt Q13423)
inactive: [1] -0.005 | [2] 0.052 | [3] 0 | [4] 0.015 | [5] 0.034

NUDT4 (UniProt Q9NZJ9)
inactive: [1] 0.037 | [2] -0.025 | [3] 0.004 | [4] 0.075 | [5] 0.242

NRAS (UniProt P01111)
inactive: [1] -0.053 | [2] 0.003 | [3] 0.018 | [4] 0.019 | [5] 0.015

NUCKS1 (UniProt Q9H1E3)
inactive: [1] 0.017 | [2] 0.008 | [3] -0.01 | [4] -0.055 | [5] -0.025

NUP153 (UniProt P49790)
inactive: [1] 0.022 | [2] -0.019 | [3] 0.01 | [4] 0.009 | [5] -0.004

NMRAL1 (UniProt Q9HBL8)
inactive: [1] -0.09 | [2] 0.049 | [3] 0.009 | [4] -0.071 | [5] -0.027

NSUN4 (UniProt Q96CB9)
inactive: [1] -0.248 | [2] 0.141 | [3] 0.04 | [4] -0.149

Reprinted from the entries so far (two entries):
NUDT16 (UniProt Q96DE0)
inactive: [1] 0.008 | [2] -0.05 | [3] -0.052 | [4] -0.047 | [5] -0.004

NT5C (UniProt J3KSX6)
inactive: [1] -0.045 | [2] 0.011

Additional results

NPM1 (UniProt P06748)
inactive: [1] 0.041 | [2] -0.036 | [3] -0.012 | [4] 0.023 | [5] 0.011
